# Data taken from PMC10023157.
# By UniProt entry, the sequences of proteins in these tests, tags left out. Residues count along the entry.
# UniProt Q07955, whole entry: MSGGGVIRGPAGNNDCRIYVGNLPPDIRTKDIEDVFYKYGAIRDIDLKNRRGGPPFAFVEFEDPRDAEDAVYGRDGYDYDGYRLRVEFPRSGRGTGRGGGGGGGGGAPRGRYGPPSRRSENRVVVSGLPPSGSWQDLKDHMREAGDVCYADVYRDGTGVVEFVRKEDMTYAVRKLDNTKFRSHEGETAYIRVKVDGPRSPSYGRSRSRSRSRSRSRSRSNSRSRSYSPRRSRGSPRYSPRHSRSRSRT
# UniProt Q07955, 1-196, stated change not applied: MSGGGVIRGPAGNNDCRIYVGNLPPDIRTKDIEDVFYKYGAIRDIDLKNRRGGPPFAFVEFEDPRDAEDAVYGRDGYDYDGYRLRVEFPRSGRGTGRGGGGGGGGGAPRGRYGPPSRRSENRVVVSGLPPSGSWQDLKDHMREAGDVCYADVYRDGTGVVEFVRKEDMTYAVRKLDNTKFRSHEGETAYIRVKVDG
# Construct, isoform or probe ends are uncertain for at least one entry. At least one verdict was read from the data and is not stated in words by the source.
# How the values were obtained:
# [1] = biological target: SRSF1 (unphosphorylated) (human) (UniProt Q07955); test: fluorescence polarization; conditions: 100 mM ER4, 400 mM Arg/Glu, pH 6.5, binding weakened but not abolished, Kd only in figure, Fluorescence polarization: 100 mM ER4 peptide, temperature not stated, three technical replicates, recombinant protein, protein details: SUMO (pSMT3) His tag removed by Ulp1, label: 5' Alexa488
# SRSF1 deltaRS (human) = SRSF1 deltaRS (human) (UniProt Q07955); conditions: recombinant protein; protein details: SUMO (pSMT3) His tag removed by Ulp1
sequence,measurement,setting,value
UCAGAGGA [Alexa488-UCAGAGGA],binding result,[1],binds
UCAGAGGA [UCAGAGGA (SRSF1 cognate RNA)],binding result,SRSF1 deltaRS (human),binds
